The text below walks through data of publication PMC9231786.

Protein sequences, listed by entry. Tags and fused reporters are not part of them. Residues count along the entry.
UniProt Q92692, residues 32-360: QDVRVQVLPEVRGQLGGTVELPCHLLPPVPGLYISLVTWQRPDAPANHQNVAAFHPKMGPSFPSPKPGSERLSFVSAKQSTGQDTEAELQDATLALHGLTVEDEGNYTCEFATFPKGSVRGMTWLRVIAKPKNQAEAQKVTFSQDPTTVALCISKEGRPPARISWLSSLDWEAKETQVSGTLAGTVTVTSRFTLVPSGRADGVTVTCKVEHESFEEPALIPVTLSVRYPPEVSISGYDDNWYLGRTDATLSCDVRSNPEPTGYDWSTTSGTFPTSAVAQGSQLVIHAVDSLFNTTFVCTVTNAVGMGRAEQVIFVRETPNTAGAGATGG
UniProt Q99706, residues 22-242: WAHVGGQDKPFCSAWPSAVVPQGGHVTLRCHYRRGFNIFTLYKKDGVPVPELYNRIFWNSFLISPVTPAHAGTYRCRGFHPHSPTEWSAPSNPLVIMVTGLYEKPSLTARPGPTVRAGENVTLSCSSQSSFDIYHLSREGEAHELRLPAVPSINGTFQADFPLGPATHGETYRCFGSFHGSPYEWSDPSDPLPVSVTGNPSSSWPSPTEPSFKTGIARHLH
UniProt P43628, residues 22-245: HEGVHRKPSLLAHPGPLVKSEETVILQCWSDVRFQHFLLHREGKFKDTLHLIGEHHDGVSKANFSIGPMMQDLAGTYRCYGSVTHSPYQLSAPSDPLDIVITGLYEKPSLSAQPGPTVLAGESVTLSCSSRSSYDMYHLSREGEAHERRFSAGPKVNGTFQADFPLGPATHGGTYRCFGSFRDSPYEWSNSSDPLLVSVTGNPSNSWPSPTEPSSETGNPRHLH
UniProt P43629, residues 22-340: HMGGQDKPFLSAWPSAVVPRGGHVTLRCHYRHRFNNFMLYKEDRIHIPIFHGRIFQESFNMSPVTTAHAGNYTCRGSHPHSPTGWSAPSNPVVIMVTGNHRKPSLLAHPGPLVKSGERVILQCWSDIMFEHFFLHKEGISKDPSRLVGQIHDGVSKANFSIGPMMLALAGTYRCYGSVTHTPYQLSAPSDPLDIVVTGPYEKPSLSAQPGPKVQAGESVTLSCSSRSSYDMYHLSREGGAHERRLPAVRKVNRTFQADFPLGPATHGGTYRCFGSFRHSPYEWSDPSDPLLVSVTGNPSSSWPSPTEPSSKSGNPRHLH
UniProt P43626, residues 22-245: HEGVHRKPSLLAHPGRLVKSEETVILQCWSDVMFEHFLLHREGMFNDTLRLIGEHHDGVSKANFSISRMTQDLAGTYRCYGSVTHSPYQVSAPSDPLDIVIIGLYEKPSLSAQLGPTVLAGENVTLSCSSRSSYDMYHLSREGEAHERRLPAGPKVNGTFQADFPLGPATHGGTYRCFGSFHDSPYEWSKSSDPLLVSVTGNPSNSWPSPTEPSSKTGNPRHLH

These are yes or no findings as the source states them, for the method shown.

Test [1] addresses T1, biotinylated CD155 (PVR, poliovirus receptor) (UniProt P15151).
T1 sequence (chain, biotin (biotinylated; site not stated)): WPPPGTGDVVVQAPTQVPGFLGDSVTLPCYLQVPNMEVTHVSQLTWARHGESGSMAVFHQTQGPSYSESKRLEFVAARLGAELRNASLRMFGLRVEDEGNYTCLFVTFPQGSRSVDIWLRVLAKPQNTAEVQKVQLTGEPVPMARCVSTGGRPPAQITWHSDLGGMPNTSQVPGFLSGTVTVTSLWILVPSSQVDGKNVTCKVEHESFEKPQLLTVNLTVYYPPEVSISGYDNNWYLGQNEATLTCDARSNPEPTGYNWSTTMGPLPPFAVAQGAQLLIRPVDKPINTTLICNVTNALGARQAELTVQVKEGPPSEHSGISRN
The test can be described thus: flow cytometry on protein-coated beads; streptavidin Dynabeads coated with biotinylated CD155, CD112 or biotin (200 pmol protein/mg beads); Fc constructs in solution at 25 μg/ml in PBS, 15 min at 4°C; detected with PE-labelled F(ab)2 goat-anti-human IgG; read-out MFI; both purified.

Test [2] has as its target biotinylated CD112 (Nectin-2) (UniProt Q92692). The description is as above.

With “KIR2DL4-Fc construct (recombinant human) (from UniProt Q99706 22-242) (Fc fusion)”, the binding entry in test [1] and in test [2] was “no binding (tested: 25 μg/ml)” each time.

As for “KIR2DL3-Fc construct (recombinant human) (from UniProt P43628 22-245) (Fc fusion)”, the binding result in test [1] and in test [2] was “no binding (tested: 25 μg/ml)” each time.

As to “KIR3DL1-Fc construct (recombinant human) (from UniProt P43629 22-340) (Fc fusion)”, the binding result in test [1] and in test [2] was “no binding (tested: 25 μg/ml)” throughout.

Consider “KIR2DL1-Fc construct (recombinant human) (from UniProt P43626 22-245) (Fc fusion)”, for which the binding result in test [1] and in test [2] was “no binding (tested: 25 μg/ml)” throughout.
